These results are taken from article doi:10.1101/2025.04.12.648552.

Amino acid sequences for entries named in this document (tags omitted).
UniProt Q07243: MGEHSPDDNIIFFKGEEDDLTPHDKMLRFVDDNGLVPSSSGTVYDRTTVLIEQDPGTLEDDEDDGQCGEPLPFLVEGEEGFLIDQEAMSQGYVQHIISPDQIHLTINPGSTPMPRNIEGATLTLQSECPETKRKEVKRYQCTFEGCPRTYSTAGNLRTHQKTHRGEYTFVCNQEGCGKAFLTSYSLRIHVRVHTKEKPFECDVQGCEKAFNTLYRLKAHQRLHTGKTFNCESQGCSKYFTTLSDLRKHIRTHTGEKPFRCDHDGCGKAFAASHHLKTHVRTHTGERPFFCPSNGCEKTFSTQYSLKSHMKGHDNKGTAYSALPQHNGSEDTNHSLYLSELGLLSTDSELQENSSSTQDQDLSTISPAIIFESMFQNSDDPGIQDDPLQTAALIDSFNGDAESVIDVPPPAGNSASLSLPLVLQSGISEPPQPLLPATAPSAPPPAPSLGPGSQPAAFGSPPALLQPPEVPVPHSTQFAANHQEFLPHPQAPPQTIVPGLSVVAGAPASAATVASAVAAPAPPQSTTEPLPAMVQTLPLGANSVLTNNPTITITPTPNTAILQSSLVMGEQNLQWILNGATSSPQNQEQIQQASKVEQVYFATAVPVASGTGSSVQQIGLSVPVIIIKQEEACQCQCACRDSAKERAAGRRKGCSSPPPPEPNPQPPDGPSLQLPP
UniProt Q8BSQ9: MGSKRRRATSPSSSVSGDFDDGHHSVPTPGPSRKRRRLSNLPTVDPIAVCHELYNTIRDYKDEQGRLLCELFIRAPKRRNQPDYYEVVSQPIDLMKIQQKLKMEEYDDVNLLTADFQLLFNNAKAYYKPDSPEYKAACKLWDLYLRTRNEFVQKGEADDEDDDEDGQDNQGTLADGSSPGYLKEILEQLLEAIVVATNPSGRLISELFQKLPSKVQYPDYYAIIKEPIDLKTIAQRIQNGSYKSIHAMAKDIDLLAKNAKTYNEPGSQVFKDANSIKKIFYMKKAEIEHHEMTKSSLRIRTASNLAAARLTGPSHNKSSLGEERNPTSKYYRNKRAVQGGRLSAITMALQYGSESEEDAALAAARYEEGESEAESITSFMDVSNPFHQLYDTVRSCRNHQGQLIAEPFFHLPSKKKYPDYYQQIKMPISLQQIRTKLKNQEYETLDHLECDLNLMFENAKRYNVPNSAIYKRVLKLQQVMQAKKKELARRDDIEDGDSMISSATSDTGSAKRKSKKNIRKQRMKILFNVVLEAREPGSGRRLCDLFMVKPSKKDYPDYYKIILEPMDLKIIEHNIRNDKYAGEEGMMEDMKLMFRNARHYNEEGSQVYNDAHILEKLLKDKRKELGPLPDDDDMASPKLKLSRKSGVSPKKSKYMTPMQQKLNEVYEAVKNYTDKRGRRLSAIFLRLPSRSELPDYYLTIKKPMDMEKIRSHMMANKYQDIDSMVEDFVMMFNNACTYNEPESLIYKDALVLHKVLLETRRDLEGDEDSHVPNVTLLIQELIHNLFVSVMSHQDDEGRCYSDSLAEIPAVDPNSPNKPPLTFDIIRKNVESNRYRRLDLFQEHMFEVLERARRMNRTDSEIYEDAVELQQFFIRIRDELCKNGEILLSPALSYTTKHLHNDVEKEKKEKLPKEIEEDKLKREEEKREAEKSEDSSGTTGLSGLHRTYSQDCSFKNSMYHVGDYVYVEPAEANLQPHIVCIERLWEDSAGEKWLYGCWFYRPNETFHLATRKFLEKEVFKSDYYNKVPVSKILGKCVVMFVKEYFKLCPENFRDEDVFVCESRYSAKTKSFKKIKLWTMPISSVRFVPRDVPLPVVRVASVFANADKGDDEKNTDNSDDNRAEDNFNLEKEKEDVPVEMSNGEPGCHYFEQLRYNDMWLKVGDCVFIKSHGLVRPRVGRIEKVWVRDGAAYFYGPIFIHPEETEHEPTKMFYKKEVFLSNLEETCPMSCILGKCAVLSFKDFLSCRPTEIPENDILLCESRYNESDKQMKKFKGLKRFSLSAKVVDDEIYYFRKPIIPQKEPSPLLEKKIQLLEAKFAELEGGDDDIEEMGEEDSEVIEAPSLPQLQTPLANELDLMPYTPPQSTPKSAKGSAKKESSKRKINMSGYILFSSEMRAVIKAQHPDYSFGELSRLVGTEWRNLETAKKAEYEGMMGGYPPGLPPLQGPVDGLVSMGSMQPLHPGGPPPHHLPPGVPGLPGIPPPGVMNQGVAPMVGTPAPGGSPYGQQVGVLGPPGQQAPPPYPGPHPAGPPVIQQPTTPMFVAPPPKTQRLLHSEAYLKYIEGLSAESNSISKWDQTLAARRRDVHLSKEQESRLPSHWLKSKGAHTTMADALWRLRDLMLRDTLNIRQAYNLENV

This test concerns the target Mtf1 (metal-responsive transcription factor) (mouse (endogenous in C2C12)) (UniProt Q07243). The test can be described thus: co-IP.

Results are given in words; binding and its absence hold for the method and conditions named. Binding seen in cells or lysates may run through a third protein. Some entries that bind do so weakly or less than the wild type.

Take “Baf180 (PBAF-specific SWI/SNF subunit) (from UniProt Q8BSQ9 1-1634)”: the binding entry was “binds”.
